Data reported in PubChem BioAssay (EPA / NIEHS).
Values joined by “and” are separate entries in the source; they are usually repeats but may differ in a detail not shown here. Identical values can stand only once. The inconclusive results got no clear call from the source; some entries with a clear call stand among them for comparison. For some assays here: Potencies of inconclusive entries are doubtful fits and often do not repeat. A structure can be active in one record and inactive in another. Active and inactive are the calls of the source. Rule for the calls: active = hit-call score of the fitted dose curve at least 0.9, where 1 is the maximum; inconclusive = response in the unintended direction; inactive = score below 0.9.

Amino acid sequences for entries named in this document (tags omitted). A change or cut given only in a name is not applied to a line headed by its entry.
UniProt P37231: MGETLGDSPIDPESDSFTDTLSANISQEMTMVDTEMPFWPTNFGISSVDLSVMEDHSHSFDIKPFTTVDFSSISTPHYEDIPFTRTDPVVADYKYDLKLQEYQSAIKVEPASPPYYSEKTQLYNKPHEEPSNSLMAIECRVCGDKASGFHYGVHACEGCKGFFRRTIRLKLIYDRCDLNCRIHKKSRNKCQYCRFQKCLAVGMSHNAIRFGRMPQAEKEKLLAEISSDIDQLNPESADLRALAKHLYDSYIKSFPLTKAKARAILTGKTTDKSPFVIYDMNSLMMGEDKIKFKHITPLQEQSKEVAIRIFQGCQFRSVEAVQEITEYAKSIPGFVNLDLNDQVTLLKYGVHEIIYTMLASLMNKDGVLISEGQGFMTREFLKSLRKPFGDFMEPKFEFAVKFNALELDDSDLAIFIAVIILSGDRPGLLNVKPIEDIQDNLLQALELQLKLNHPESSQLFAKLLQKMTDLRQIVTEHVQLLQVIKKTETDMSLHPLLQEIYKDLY
UniProt P10827: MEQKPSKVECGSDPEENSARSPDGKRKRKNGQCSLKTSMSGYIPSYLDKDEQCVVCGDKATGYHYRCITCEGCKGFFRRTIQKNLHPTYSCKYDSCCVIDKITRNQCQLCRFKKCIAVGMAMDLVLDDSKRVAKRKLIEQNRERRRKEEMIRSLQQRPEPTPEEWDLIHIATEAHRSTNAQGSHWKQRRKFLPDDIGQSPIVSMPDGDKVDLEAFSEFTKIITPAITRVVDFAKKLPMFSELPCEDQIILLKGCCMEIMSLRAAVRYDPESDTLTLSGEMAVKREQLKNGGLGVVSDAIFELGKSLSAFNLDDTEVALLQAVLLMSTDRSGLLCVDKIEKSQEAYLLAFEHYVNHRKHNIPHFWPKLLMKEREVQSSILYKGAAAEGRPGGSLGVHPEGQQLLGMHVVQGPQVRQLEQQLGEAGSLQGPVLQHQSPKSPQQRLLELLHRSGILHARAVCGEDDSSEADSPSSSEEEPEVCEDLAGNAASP
UniProt P15204: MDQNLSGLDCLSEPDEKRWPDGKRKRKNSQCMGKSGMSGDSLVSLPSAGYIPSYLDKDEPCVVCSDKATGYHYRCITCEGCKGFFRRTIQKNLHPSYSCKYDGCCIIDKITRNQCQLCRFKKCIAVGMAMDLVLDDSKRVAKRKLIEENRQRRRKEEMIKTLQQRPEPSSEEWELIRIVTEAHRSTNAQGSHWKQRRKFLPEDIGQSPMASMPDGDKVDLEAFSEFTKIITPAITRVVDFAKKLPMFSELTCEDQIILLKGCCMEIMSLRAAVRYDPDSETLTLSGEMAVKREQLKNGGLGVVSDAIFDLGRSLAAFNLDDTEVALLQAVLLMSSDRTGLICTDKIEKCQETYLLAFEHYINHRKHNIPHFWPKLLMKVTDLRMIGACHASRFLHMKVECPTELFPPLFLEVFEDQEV
UniProt P10828: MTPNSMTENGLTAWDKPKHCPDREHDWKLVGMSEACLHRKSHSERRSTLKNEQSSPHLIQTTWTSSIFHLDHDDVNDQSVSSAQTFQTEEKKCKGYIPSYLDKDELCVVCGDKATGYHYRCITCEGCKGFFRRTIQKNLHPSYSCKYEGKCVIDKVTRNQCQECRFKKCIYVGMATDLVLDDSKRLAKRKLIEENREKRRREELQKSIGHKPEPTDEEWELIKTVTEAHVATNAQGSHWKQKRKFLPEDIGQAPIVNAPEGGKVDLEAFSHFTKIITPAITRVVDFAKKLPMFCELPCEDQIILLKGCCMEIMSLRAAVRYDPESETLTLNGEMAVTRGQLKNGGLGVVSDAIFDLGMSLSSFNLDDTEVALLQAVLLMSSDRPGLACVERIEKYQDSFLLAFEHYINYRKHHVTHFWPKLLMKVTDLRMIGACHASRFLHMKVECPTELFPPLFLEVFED
UniProt P37238, whole entry, looked up: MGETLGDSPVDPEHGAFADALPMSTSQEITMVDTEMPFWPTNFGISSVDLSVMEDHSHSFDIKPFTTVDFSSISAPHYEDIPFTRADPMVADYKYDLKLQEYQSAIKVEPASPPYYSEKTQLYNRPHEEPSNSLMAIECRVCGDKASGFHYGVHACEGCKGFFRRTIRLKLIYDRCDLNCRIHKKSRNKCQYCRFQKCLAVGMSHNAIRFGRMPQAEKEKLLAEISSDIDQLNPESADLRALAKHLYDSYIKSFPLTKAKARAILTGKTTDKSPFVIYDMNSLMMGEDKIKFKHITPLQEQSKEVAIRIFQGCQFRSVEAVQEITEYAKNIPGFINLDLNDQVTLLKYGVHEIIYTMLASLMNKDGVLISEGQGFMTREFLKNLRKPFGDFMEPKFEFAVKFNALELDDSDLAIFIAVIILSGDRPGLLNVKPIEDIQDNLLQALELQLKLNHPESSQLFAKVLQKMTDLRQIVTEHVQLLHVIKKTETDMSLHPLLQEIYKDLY
UniProt P06401: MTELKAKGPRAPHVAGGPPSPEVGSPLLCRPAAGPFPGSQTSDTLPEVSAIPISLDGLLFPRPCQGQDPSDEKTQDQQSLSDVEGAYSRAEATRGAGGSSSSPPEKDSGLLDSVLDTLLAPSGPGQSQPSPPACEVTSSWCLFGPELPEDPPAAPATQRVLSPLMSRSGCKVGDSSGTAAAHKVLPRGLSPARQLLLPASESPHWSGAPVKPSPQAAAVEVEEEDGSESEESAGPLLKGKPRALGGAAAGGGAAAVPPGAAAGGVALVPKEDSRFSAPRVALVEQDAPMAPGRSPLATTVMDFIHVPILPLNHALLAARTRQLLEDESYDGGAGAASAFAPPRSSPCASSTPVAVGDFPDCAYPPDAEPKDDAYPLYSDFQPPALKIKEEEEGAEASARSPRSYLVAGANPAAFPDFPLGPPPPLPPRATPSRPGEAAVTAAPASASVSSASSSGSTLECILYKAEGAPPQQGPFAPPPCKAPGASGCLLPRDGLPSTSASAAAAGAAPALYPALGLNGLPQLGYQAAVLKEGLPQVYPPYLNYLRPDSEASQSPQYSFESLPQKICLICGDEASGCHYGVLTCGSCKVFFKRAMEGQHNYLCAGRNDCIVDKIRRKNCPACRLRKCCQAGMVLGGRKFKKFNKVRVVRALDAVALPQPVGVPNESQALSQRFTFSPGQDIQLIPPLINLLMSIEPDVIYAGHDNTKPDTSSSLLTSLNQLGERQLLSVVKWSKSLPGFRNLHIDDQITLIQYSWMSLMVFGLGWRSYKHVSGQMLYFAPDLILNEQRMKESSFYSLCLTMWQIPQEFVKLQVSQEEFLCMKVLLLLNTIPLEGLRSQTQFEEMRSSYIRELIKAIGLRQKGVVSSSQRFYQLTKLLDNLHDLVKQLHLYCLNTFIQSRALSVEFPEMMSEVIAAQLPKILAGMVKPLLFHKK

Experiments:
[1] = biological target: Peroxisome proliferator-activated receptor gamma (Homo sapiens) (UniProt P37231); assay: ATG_hPPARg_XSP2: Attagene TRANS-FACTORIAL Multi-Species (XSP2) HepG2 Assay for human Peroxisome Proliferator-activated Receptor gamma (PPARg) (AID 2283829);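 note: actives raise reporter mRNA above DMSO so AC50 reflects PPARg activation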
Method in brief: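 HepG2 cells transiently transfected with multiplexed GAL4-UAS reporter units for chimeric NR-Gal4 receptors, dosed 24 h. Reporter mRNA quantified by RT-PCR, 6-FAM labeling, HpaI digestion and capillary electrophoresis; gain-of-signal fitted against DMSO baseline.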

[2] = biological target: Nuclear receptor subfamily 1 group I member 2 (Mus musculus) (UniProt O54915); assay: ATG_mPXR_XSP2: Attagene TRANS-FACTORIAL Multi-Species (XSP1) HepG2 Assay for mouse Pregnane X Receptor (PXR) (AID 2283831)
Method in brief: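 HepG2 cells transiently transfected with GAL4-UAS reporter units expressing chimeric NR-GAL4 proteins; reporter mRNA measured 24 h after dosing by RT-PCR with 6-FAM labelling and capillary electrophoresis, gain of signal relative to DMSO.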

[3] = tested on: zebrafish Peroxisome Proliferator-activated Receptor gamma (PPARg), gene 557037; assay: ATG_zfPPARg_XSP2: Attagene TRANS-FACTORIAL Multi-Species (XSP2) HepG2 Assay for zebrafish Peroxisome Proliferator-activated Receptor gamma (PPARg) (AID 2283833);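 note: actives increase reporter signal over DMSO so AC50 reflects activation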
Method in brief: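 HepG2 cells transiently transfected with GAL4-UAS reporter units expressing a zebrafish PPARg–GAL4 chimera; compound exposure 24 h. Reporter mRNA quantified by RT-PCR with fluorescent labelling and capillary electrophoresis; gain of signal fitted relative to DMSO baseline.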

[4] = ATG_XTT_Cytotoxicity_XSP2: Cytotoxicity Assessment in the Attagene TRANS-FACTORIAL Multi-Species (XSP2) HepG2 Assay (AID 2283837)
Method in brief: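 XTT-based cell number read-out in human HepG2 liver cells carrying transfected reporter units, measured 24 h after chemical dosing. Activity is signal loss versus DMSO baseline.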

[5] = biological target: human Thyroid hormone Receptor alpha (TRa), THRA (gene 7067) (UniProt P10827); assay: ATG_hTRa_XSP2: Attagene TRANS-FACTORIAL Multi-Species (XSP2) HepG2 Assay for human Thyroid hormone Receptor alpha (TRa) (AID 2283838)
Method in brief: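 Gain-of-signal in reporter mRNA, relative to DMSO, after 24 h dosing of transfected HepG2; quantitation by RT-PCR fragment analysis on capillary electrophoresis.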

[6] = biological target: frog Thyroid hormone Receptor alpha (TRa), thra-a (gene 397942) (UniProt P15204); assay: ATG_frTRa_XSP2: Attagene TRANS-FACTORIAL Multi-Species (XSP2) HepG2 Assay for frog Thyroid hormone Receptor alpha (TRa) (AID 2283839);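 for AC50: AC50 reflects induction of frog TRa-driven reporter mRNA above DMSO baseline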
Method in brief: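 HepG2 cells transiently transfected with multiplexed GAL4-UAS reporter units expressing chimeric frog TRα-Gal4; reporter mRNA read 24 h after dosing by RT-PCR, FAM-labelled primer extension, HpaI digest and capillary electrophoresis. Gain of signal fitted versus DMSO.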

[7] = biological target: human Thyroid hormone Receptor beta (TRb), THRB (gene 7068) (UniProt P10828); assay: ATG_hTRb_XSP2: Attagene TRANS-FACTORIAL Multi-Species (XSP2) HepG2 Assay for human Thyroid hormone Receptor beta (TRb) (AID 2283840);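 note: actives raise reporter mRNA so potency reflects agonist-like gain of signal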
Method in brief: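 HepG2 cells were transiently transfected with GAL4-UAS multiplexed reporter units expressing chimeric NR-Gal4 proteins, dosed 24 h; reporter mRNA was quantified by RT-PCR, fluorescent labeling, HpaI digestion and capillary electrophoresis, fitted for gain of signal versus DMSO.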

[8] = tested on: turtle Thyroid Hormone Receptor, alpha (TRa), gene 101949057; assay: ATG_trTRa_XSP2: Attagene TRANS-FACTORIAL Multi-Species (XSP1) HepG2 Assay for turtle Thyroid Hormone Receptor, alpha (TRa) (AID 2283834);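 note: hits raise reporter mRNA over the DMSO baseline so AC50 marks activators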
Method in brief: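 HepG2 cells transiently transfected with multiplexed GAL4-UAS reporter units expressing chimeric NR-Gal4 proteins were dosed for 24 hours. Reporter mRNA was quantified by RT-PCR with 6-FAM labelling and capillary electrophoresis, gain of signal scored against DMSO.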

[9] = biological target: mouse Peroxisome Proliferator-activated Receptor gamma (PPARg), Pparg (gene 19016) (UniProt P37238); assay: ATG_mPPARg_XSP2: Attagene TRANS-FACTORIAL Multi-Species (XSP2) HepG2 Assay for mouse Peroxisome Proliferator-activated Receptor gamma (PPARg) (AID 2283830);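 note: hits are gains in reporter mRNA above DMSO so AC50 marks activation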
Method in brief: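 Multiplexed TRANS reporter readout: after 24 h chemical exposure of transfected HepG2 cells (with 3 nM 6-alpha-fluorotestosterone, 1.5 nM norgestrel present), RNA reverse-transcribed, amplified, 6-FAM-labelled and resolved by capillary electrophoresis; mouse PPARg-Gal4 induction scored against DMSO.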

[10] = tested on: Sodium/Iodide Symporter (NIS), SLC5A5 (gene 6528); assay: CPHEA_Stoker_NIS_Inhibition_RAIU: CPHEA's Radioactive Iodide Uptake (RAIU) Assay for Sodium/Iodide Symporter (NIS) Inhibition, Stoker and Laws Labs (AID 2283841)
Method in brief: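 HEK293T cells stably expressing human NIS (hNIS-HEK293T-EPA) were exposed to test chemicals at 0.001–100uM (0.5% final DMSO) with 125I at a final 329pM in HBSS/10mM HEPES pH 7.4. After 2 hours at room temperature and ice-cold washes, intracellular 125I was counted as CPM and normalized to DMSO wells.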

[11] = biological target: PGR (gene 5241) (UniProt P06401); assay: TOX21_PR_BLA_Followup_Agonist_ratio: Tox21 HEK293 Progesterone Receptor (PR) Agonism Beta-lactamase Follow-Up Assay, Ratio (AID 2283933)
Method in brief: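 Read-out: ratio of cleaved (ch2) to uncleaved (ch1) beta-lactamase substrate fluorescence, gain-of-signal relative to DMSO baseline. Cells: PR-UAS-bla HEK293T, 2% charcoal-stripped FBS; compound exposure 16 hr, 37C; substrate 2 hr, RT.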

[12] = biological target: PGR (gene 5241) (UniProt P06401); assay: TOX21_PR_LUC_Followup_Antagonist: Tox21 HEK293 Progesterone Receptor (PR) Antagonism Luciferase Follow-Up Assay (AID 2283938);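 note: curve fitted upward as signal gain over DMSO baseline despite antagonist label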
Method in brief: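 HEK293-PR-A-luc cells were precultured 5 days in medium with 10% charcoal-stripped FBS, seeded 3,000/well, then exposed to compounds in DMSO for 16 h at 37C. Luciferase was read by ONE-Glo luminescence after 30 min at room temperature.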

CC(c1ccc(O)cc1)(c1ccc(O)cc1)c1ccc(O)cc1
AC50 [1]: inconclusive: 1 µM | AC50 [2]: inconclusive: 1 µM | AC50 [3]: inconclusive: 1 µM | outcome [3]: inactive | AC50 [4]: inconclusive: 1000 nM | AC50 [5]: inconclusive: 1 µM | AC50 [6]: inconclusive: 17.3 nM | AC50 [7]: inconclusive: 1 µM

Oc1c(I)cc(I)cc1I
AC50 [1]: active: 12 µM and active: 10.4 µM | AC50 [2]: active: 56.6 µM | outcome [2]: inactive | AC50 [3]: active: 26.1 µM and active: 23.3 µM | AC50 [4]: active: 69100 nM | AC50 [5]: inconclusive: 100 µM and active: 26 µM | AC50 [6]: active: 26.5 µM and active: 25.7 µM

C[C@H]1CCCC(=O)CCC/C=C/c2cc(O)cc(O)c2C(=O)O1
AC50 [9]: inconclusive: 0.358 nM | AC50 [2]: inconclusive: 0.1 µM | AC50 [8]: inconclusive: 100 nM | outcome [4]: inactive | AC50 [5]: inconclusive: 0.1 µM | outcome [5]: inactive | AC50 [6]: inconclusive: 100 nM | outcome [10]: inactive | AC50 [11]: inconclusive: 18200 nM

CCC(=O)O[C@H]1CC[C@H]2[C@@H]3CCC4=CC(=O)CC[C@]4(C)[C@H]3CC[C@]12C
AC50 [1]: inconclusive: 0.154 µM | AC50 [9]: inconclusive: 180 nM and inconclusive: 177 nM | AC50 [2]: inconclusive: 5.46 nM and inconclusive: 70.5 nM | AC50 [3]: inconclusive: 190 nM and inconclusive: 100 nM | AC50 [8]: inconclusive: 100 nM | AC50 [4]: inconclusive: 100 nM | AC50 [6]: inconclusive: 0.4 nM | AC50 [11]: active: 12000 nM | outcome [12]: inactive

C[C@]12CCC(=O)C[C@@H]1CC[C@@H]1[C@@H]2CC[C@]2(C)[C@@H](O)CC[C@@H]12
AC50 [2]: inconclusive: 0.49 µM
